The supplement of paper PMC7858590
“And” between values parts separate entries of the source, which are not always exact repeats. Identical values can stand only once. ± gives the standard deviation of the averaged measurements. In all, about 3,800 compounds were measured (“cell shape (eccentricity) Z-score vs DMSO control”: median about 1.1, lowest 2% from about -4.7 on). The list shows a part of the results.

System: human monocyte-derived macrophages (M0)
Experiment: cell shape (eccentricity) Z-score vs DMSO control; higher = more elongated, M2-like morphology
Details: 20 µM; 24 h; macrophage state: M0 (M-CSF)
Description: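 Primary human monocyte-derived macrophages (M-CSF differentiated, pooled from 4 donors, 5000 cells/well in 384-well plates) were treated with each compound at 20 uM for 24 h, then fixed and stained with phalloidin/DAPI and imaged on an Opera Phenix (6 fields, about 1000 cells/well). Cell eccentricity was measured with CellProfiler, and a Z-score (t-test) was computed against 4 DMSO control wells in the same row. Negative values mean round (M1-like) cells and positive values mean elongated (M2-like) cells; the paper's hit cutoffs are Z <= -4 (M1) and Z >= 6 (M2). Scale: negative = round, M1-like.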

Row | SMILES | cell shape (Z-score)
1 | C=CCN1C[C@H](C(=O)N(CCCN(C)C)C(=O)NCC)C[C@@H]2c3cccc4[nH]cc(c34)C[C@H]21 | 4.57
2 | O=C(c1ccccc1O)c1[nH]c(Cl)c(Cl)c1-n1c(C(=O)c2ccccc2O)cc(Cl)c1Cl | 2.99
3 | CCCCCCCCCCCCCC(=O)O[C@@H]1[C@@H](C)[C@@]2(O)[C@@H](C=C(CO)C[C@]3(O)C(=O)C(C)=C[C@@H]23)[C@@H]2C(C)(C)[C@]12OC(C)=O | 7.06
4 | COc1ccc(-c2cc(=O)c3c(OC)c(OC)c(OC)cc3o2)cc1 | 3.85
5 | C/C=C1/CN2C3CC1C(CO)C2Cc1c3[nH]c2ccc(OC)cc12 (stereo not given) | 0.661 ± 2.9
6 | COc1cc(Br)c(OC)c2c1C(CN)C2 (stereo not given) | -4.96
7 | COc1ccc(OC)c(C(O)C(C)N)c1 (stereo not given) | 2.8
8 | O=C(O)COc1ccc(Cl)cc1Cl | 1.28
9 | C=C(C)[C@@]12O[C@@H]1[C@@]1(C)C(=C[C@H]2O)CC[C@@H](O)[C@@H]1C | 2.83
10 | C=C(C)[C@@H]1CCC(C)=C[C@H]1c1c(OC)cc(C)cc1OC | 1.74
11 | CC(C)n1cnc2c(C(=O)N[C@H]3CN4CCC3CC4)cc(Cl)cc21 | -0.185
12 | CN(C)c1ccc(/C=C2\CCCN=C2c2cccnc2)cc1 | 1.62
13 | O=C1NCN(c2ccccc2)C12CCN(CCCOc1ccc(F)cc1)CC2 | 1.17
14 | CC1(C)C2C[C@@H](O)[C@]3(C)C(CC[C@@]4(C)[C@H](c5ccoc5)OC(=O)[C@H]5O[C@]543)[C@@]2(C)[C@@H](O)C[C@H]1O (stereo not given in full) | 0.737
15 | COC(=O)C=CC(=O)NC1CCC2(O)C3Cc4ccc(O)c5c4C2(CCN3CC2CC2)C1O5 (stereo not given) | -2.22
16 | CC1=C[C@H]2[C@]3(O)[C@H](C)[C@@H](O)[C@@]4(O)[C@H]([C@@H]3C=C(CO)C[C@]2(O)C1=O)C4(C)C | 1.75
17 | COc1ccc2c(c1O)-c1cc(O)cc3c1[C@@H](C2)N(C)CC3 | 0.611
18 | C=C1CC2C(CC[C@]3(C)C(=O)CCC23)[C@@]2(C)C=CC(=O)C=C12 (stereo not given in full) | 3.28
19 | COc1cc2occc2c2oc(=O)ccc12 | 4.65
20 | CC(C)c1ccc2c(c1O)CC[C@H]1C3=C(CC[C@]21C)C(=O)OC3 | -1.92
21 | N#CC(C#N)=Cc1ccc(O)c(O)c1 | 2.09
22 | CN([N+][O-])c1cc(O)ccc1O | -4.54
23 | c1ccc(C2CC2)c(OCC2=NCCN2)c1 | 0.849 and 2.54

Row | SMILES | cell shape (Z-score)
24 | C[C@@H]1O[C@@H](O[C@H]2CC[C@]3(C=O)C4CC[C@]5(C)[C@@H](C6=CC(=O)OC6)CC[C@]5(O)C4CC[C@]3(O)C2)[C@H](O)[C@H](O)[C@H]1O (stereo not given in full) | 0.553
25 | COc1cc(C(=O)O[C@H]2[C@@H]3C=CO[C@@H](O[C@@H]4O[C@H](CO)[C@@H](O)[C@H](O)[C@H]4O)[C@@H]3[C@@]3(CO)O[C@@H]23)ccc1O | -1.41
26 | Clc1ccc(C(OCCN2CCCCC2)c2ccccc2)cc1 (stereo not given) | 9.16
27 | c1cncc(C2=NCCC2)c1 | 0.998
28 | CC(C)(C)c1cc(C=C(C#N)C#N)cc(C(C)(C)C)c1O | -0.65
29 | CN1C(=O)COc2c1cc(Cl)cc2C(=O)NC1CN2CC[C@H]1CC2 (stereo not given) | -3.51
30 | C#CCN(C)[C@H](C)Cc1ccccc1 | -1.13
31 | O=c1[nH]c2ccccc2n1C1CCN(CCCC(c2ccc(F)cc2)c2ccc(F)cc2)CC1 | -6.33
32 | CC(C)(O)CCC(=O)[C@](C)(O)[C@H]1[C@H](O)C[C@@]2(C)[C@@H]3CC=C4C(C=C(O[C@@H]5O[C@H](CO)[C@@H](O)[C@H](O)[C@H]5O)C(=O)C4(C)C)[C@]3(C)C(=O)C[C@]12C (stereo not given in full) | 1.51
33 | CC(NC(C)(C)C)C(=O)c1cccc(Cl)c1 (stereo not given) | 1.9
34 | COC(=O)C1CC(=O)C[C@H]2[C@]3(C)C[C@@H](c4ccoc4)OC(=O)[C@H]3CC[C@@]12C (stereo not given in full) | 2.46
35 | C=C(C)c1cc2cc(C(C)=O)c(O)cc2o1 | 3.96
36 | COc1c2c(cc3c1OCO3)CC[N+](C)=C2 | 3.32
37 | C=C[C@@H]1C2=CCOC(=O)C2=CO[C@H]1O[C@@H]1O[C@H](CO)[C@@H](O)[C@H](O)[C@H]1O | 1.3
38 | O=C(/C=C/c1ccccc1)OCC1OC(OC2OC=CC3C(O)C4OC4(CO)C23)C(O)C(O)C1O (stereo not given) | -1.19
39 | C=C(C)CN1CC[C@]23c4c5ccc(O)c4O[C@H]2c2[nH]c4ccccc4c2C[C@@]3(O)C1C5 | -2.31
40 | Cc1[nH]c2ccccc2c1CN(C)C | 2.11
41 | CN(C)CCc1ccc(O)cc1 | 2.3
42 | C[N+]1(C)CCc2cc3c(cc2[C@H]1C1OC(=O)c2c1ccc1c2OCO1)OCO3 (stereo not given in full) | -0.597
43 | N#C/C(=C\c1ccc(O)cc1)C(=O)O | 1.33
44 | COC1=C[C@@H]2[C@@H]3Cc4ccc(OC)c(O)c4[C@]2(CCN3C)CC1=O | 4.36
45 | C[C@]12C=CC(=O)C=C1CC[C@@H]1C2CC[C@]2(C)C(=O)CCC12 (stereo not given in full) | 0.931 ± 0.72
